No constants are given. Whether binding was seen depends on the method and setting. In cells and extracts the contact can be indirect. Some results given as binding are weak or reduced against the parent protein; the word gives no strength.
Biological target: p53 (UniProt P10361)
Assay: co-IP; coIP of USP11 and p53; cells, antibodies and bait not described; the section is on microglial cells

Amino acid sequences for entries named in this document (tags omitted).
UniProt P10361: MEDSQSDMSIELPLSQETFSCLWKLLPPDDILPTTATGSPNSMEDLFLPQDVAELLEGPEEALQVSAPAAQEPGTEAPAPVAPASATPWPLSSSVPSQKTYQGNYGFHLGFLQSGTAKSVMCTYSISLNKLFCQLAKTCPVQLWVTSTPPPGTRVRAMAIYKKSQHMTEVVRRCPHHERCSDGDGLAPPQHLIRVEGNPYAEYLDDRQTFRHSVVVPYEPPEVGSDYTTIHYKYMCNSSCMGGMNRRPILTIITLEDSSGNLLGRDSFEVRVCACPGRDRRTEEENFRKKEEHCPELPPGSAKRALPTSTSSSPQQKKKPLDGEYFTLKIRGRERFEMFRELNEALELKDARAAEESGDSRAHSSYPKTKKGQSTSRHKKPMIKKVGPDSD

B1: Ubiquitin-specific protease 11 (enzyme, UniProt Q5D006 1-921)
chain: MAAVAADPAAAAVPASAEDRETQPEAMPDLDQQWRQIGNGRERPLRAGESWFLVEKHWYKQWEAYVKGGDQDASTFPGSINNSGLFEDQISWHLRERLVEGDDYVLLPAPAWNYLVSWYGLKDDQPPIERKVIELPGIRKVEVYPIELLLVQHSDMETALTIQFSYSDSVDLVLQTAREQFLVEPQEDTRLWTKNSEGSLDRLCNTQITLLDACLETGQLVIMETRNKDGTWPSAQLCGMNNMPDEDEDFQGQPGICGLTNLGNTCFMNSALQCLSNVPQLTEYFLNNRYLEELNFRNPLGMKGELAEAYADLVKQTWSGYHRSIVPNVFKNKVGHFASQFLGYQQHDSQELLSFLLDGLHEDLNRVKKKEYVELCNGAGRPDLEVAQEAWQNHKRRNDSVIVDTFHGLFKSTLVCPDCGNVSVTFDPFCYLSVPLPVCSRRVLEVFFVPMDPRRKPEQHRVVVPKKGNISDLCVALSTHTSVAPDKMIVADVFSHRFYKLYQLEDPLSGILDRDDIFVYEVTGRIEPVEGSRDDIVVPVYLRERTPSRDYNNSYYGLILFGHPLLVSVPRDRFSWEGLYNILMYRLSRYVTKPTSDDDDGDEKGDENEDEDVEDDSSSEEEKEEMSGPTDNDGTQESEQEQAGTSSGVTGRCPSLLDNSLHTSQWPPRRRRKQLFTLQTVNSNGTSDRTTSPEEAQTQPYIAMDWEPEMKRRYYDEVEAEGYVKHDCVGYMLKKNPVQLKECIKLFTTVETLEKENPWYCSSCKQHQLATKKLDLWMLPEVLIIHLKRFSFSKFSREKLDTLVQFPIRDLDFSEFVIKPKNESAPDLYKYDLIAVSNHYGGMRDGHYTTFACNKDSGQWHYFDDNSVSPVNENQIESKAAYVLFYQRQDVGRRQSQTASSETPTSPASSSTPNSDIMDVN
- binding: binds

— publication PMC8178085
